Experiment: Size-exclusion chromatography of syndecan-4 cytoplasmic tail peptides (oligomerization)
Format: physicochemical
Conditions: 300 μM peptide incubated with 350 μM PIP2

For “S4c-P: similar syndecan-4 cytoplasmic tail peptide with a phosphorylated Ser (RMKKKDEGSYDLGKKPIYKKAPTNEFYA)”, the elution profile was “single peak”.

Source: patent US6815187B1, “Stimulation of angiogenesis via syndecan-4 cytoplasmic domain signaling pathway” (Beth Israel Deaconess Medical Center, priority 1998, dated 2004)
